Measured data: PubChem BioAssay AID1159584 (Peter MacCallum Cancer Centre, 2016)
Shown is a random part of about 18,000 reagents tested. The record does not give: the amount of reagent, the time to read-out.

- Purpose: 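Genes whose loss is lethal only together with E-cadherin loss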 (primary screen)
- Cells: human MCF10A breast epithelial cells, parental and CDH1-null
- Knock-down reagent: siRNA against human genes
- Detection: 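ATP luminescence (CellTiter-Glo) viability per line relative to mean mock wells over all plates, and the ratio of CDH1-null to parental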
- Reading the numbers: CDH1-null / parental viability ratio: higher = CDH1-null cells survive relatively better than parental; CDH1-null viability vs mock: higher = more viable CDH1-null cells; parental viability vs mock: higher = more viable parental cells

| gene knocked down | CDH1-null / parental viability ratio | CDH1-null viability vs mock (fraction of mock) | parental viability vs mock (fraction of mock) |
| --- | --- | --- | --- |
| DDX19A | 0.78 | 0.39 | 0.5 |
| SESN2 | 1.07 | 0.92 | 0.86 |
| PICK1 | 0.89 | 0.77 | 0.87 |
| ADAMTS3 | 1.2 | 0.84 | 0.7 |
| GPR75 | 1.37 | 1 | 0.73 |
| PDZD2 | 1 | 0.76 | 0.76 |
| GRXCR1 | 0.94 | 0.9 | 0.96 |
| PARS2 | 0.95 | 0.76 | 0.8 |
| ABI2 | 0.89 | 0.78 | 0.88 |
| ADAMTS4 | 1.16 | 0.8 | 0.69 |
| RIOK1 | 0.92 | 0.68 | 0.74 |
| NT5E | 1.34 | 0.79 | 0.59 |
| TRAPPC10 | 1.04 | 0.94 | 0.9 |
| MYO5C | 1.17 | 0.94 | 0.8 |
| SCNN1A | 1.17 | 0.9 | 0.77 |
| SLC25A46 | 0.74 | 0.74 | 1 |
| SLC35G1 | 1.06 | 0.82 | 0.77 |
| PPP1R7 | 1.61 | 0.87 | 0.54 |
| RAI1 | 1.03 | 0.68 | 0.66 |
| PRKACA | 0.89 | 0.84 | 0.94 |
| ZBTB25 | 0.93 | 0.99 | 1.07 |
| SELENOW | 1.17 | 0.75 | 0.64 |
| RAB26 | 0.77 | 0.48 | 0.62 |
| PPP1R3A | 1.28 | 0.83 | 0.65 |
| SCEL | 0.93 | 0.84 | 0.9 |
| CER1 | 1.18 | 1.04 | 0.88 |
| NTN4 | 0.97 | 0.6 | 0.62 |
| GCH1 | 1.04 | 0.99 | 0.95 |
| ZP1 | 1.11 | 0.94 | 0.85 |
| OGFR | 0.95 | 0.42 | 0.44 |
| WSCD2 | 0.83 | 0.7 | 0.84 |
| NEDD8 | 1.13 | 1.08 | 0.96 |
| ERCC5 | 1.1 | 1.06 | 0.96 |
| GDPD2 | 1.12 | 1 | 0.89 |
| CACNA1D | 1.13 | 1.04 | 0.92 |
| FGFR2 | 0.87 | 0.67 | 0.77 |
| TASP1 | 1.26 | 0.78 | 0.62 |
| NLGN4Y | 0.9 | 0.74 | 0.82 |
| DDB1 | 1.04 | 0.82 | 0.79 |
| NDUFA13 | 0.87 | 0.84 | 0.97 |
| KRTDAP | 0.79 | 0.45 | 0.57 |
| DCDC2 | 0.67 | 0.56 | 0.83 |
| UNC5D | 0.88 | 0.66 | 0.75 |
| SIRT7 | 1.28 | 0.74 | 0.58 |
| RAB4B | 0.87 | 0.54 | 0.62 |
| DEFB132 | 0.85 | 0.47 | 0.55 |
| ZNF619 | 0.82 | 0.62 | 0.76 |
| RCOR2 | 1.2 | 1.08 | 0.9 |
| CLDN19 | 0.99 | 0.78 | 0.79 |
| PIP5K1A | 0.82 | 0.74 | 0.9 |
| CCDC170 | 1.09 | 0.98 | 0.9 |
| WDR24 | 1.01 | 0.95 | 0.94 |
| WASHC2C | 0.99 | 1.03 | 1.04 |
| TBL1X | 1.27 | 0.66 | 0.52 |
| CSN3 | 1.1 | 0.53 | 0.48 |
| KCNH7 | 1.13 | 0.96 | 0.85 |
| FBXO4 | 0.94 | 0.88 | 0.94 |
| EIF3A | 1 | 0.52 | 0.52 |
| LIMD1 | 1.08 | 0.98 | 0.91 |
| GCC1 | 0.94 | 0.88 | 0.94 |
| RGL1 | 1.25 | 1.05 | 0.84 |
| OR13C8 | 1.16 | 0.67 | 0.58 |
| MLANA | 1.3 | 1 | 0.77 |
| RPP30 | 1.16 | 0.58 | 0.5 |
| C6orf15 | 0.84 | 0.38 | 0.45 |
| CRYZ | 1.09 | 0.85 | 0.78 |
| ANO7 | 1.13 | 0.85 | 0.75 |
| IFT20 | 1.01 | 0.86 | 0.85 |
